# Primary screen of a compound library

Sequences of proteins named here, by UniProt entry; tags and fusion partners are left off. Residues count along the entry.
UniProt Q4DA54, 1-478: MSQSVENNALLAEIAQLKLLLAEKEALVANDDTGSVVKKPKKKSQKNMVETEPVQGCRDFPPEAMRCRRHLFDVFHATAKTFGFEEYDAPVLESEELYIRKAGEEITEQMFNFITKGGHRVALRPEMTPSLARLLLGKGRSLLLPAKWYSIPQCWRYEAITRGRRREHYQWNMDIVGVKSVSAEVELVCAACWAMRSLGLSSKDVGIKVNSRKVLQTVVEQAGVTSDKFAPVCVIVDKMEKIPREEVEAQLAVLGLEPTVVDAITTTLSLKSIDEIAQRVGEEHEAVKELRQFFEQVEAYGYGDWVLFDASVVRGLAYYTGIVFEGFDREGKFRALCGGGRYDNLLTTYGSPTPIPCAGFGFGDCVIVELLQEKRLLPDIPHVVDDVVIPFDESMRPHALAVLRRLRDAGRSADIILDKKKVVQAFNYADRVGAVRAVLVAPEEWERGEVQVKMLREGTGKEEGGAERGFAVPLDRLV
UniProt A4I591, 1-473: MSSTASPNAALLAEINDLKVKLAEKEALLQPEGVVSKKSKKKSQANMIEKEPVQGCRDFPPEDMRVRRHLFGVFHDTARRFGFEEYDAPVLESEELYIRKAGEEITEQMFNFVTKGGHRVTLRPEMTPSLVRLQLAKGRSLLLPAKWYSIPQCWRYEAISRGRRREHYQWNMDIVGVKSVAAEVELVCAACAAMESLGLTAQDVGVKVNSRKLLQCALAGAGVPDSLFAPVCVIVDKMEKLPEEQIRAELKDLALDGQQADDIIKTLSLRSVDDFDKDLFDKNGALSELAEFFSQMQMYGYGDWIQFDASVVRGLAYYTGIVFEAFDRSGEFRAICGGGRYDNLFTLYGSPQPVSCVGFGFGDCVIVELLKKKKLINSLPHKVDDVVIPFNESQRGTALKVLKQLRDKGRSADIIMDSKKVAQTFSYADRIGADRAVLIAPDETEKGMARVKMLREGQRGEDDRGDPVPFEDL
UniProt P9WPC5, whole entry: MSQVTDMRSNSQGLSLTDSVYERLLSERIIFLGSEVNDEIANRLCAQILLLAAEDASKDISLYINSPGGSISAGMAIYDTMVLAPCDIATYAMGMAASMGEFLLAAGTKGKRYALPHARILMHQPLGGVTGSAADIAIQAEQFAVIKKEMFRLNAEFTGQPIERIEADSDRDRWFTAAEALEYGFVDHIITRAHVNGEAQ
UniProt P9WPC3, whole entry partner: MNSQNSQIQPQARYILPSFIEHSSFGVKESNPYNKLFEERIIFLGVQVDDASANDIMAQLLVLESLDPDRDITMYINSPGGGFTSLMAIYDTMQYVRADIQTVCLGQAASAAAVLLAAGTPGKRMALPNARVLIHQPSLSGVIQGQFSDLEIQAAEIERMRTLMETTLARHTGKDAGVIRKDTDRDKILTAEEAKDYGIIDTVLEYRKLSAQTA

Measurements from “University of Dundee, Small-Polar-MMV Screening Library” (2021), ChEMBL document CHEMBL3988442.

Values are the deposited “Percent Effect”, in %.
The record does not define 0% and 100%; most values in the screen are far below 50% and negative numbers occur (in some assays of this library far below -100).
The compounds are a random part of those screened.
Two or more numbers in one place are separate tests of the same structure; such repeats can differ widely.
A dash means the value is not listed here; it may have been measured.

A: 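Assay of Toxoplasma gondii numbers, read through their beta-galactosidase reporter with a colour substrate. Compounds at 10 µM. Higher reads as fewer parasites (inferred from which compounds were picked for retests). Of about 67,000 compounds tested this way, about 260 (0.38%) reached 50% or more in at least one test.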
B: 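Cell assay of Leishmania donovani living inside macrophages; the read-out is not stated. Concentration: 30 µM. Direction is inferred from retests: higher values go with stronger inhibition. Of about 69,000 compounds tested this way, about 1,000 (1.5%) reached 50% or more in at least one test.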
C: 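Histidine-tRNA ligase, Trypanosoma cruzi CL Brener (UniProt Q4DA54). Enzyme assay of histidyl-tRNA synthetase; the read-out is not stated. Concentration: 30 µM. The record gives no direction; compounds that gave an IC50 in retests scored well above the rest, so higher reads as stronger inhibition. Size under these conditions: about 69,000 compounds, about 31 of them at 50% or above in at least one test.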
D: 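Enzyme assay of histidyl-tRNA synthetase; the read-out is not stated. Target: Histidine-tRNA ligase, Leishmania infantum (UniProt A4I591). Compounds at 30 µM. Higher reads as stronger inhibition (inferred: compounds with an IC50 in retests scored well above the rest). The assay is labelled LdHisRS but filed under L. infantum. Size under these conditions: about 69,000 compounds, about 410 of them at 50% or above in at least one test.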
E: 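ClpP1P2, Mycobacterium tuberculosis (UniProt P9WPC5 and UniProt P9WPC3). Protease assay of ClpP1P2, read by the AMC dye that it sets free. Compounds at 50 µM. Higher reads as stronger inhibition, judged from the few compounds that gave an IC50. Most other retested compounds had strongly negative values. About 69,000 compounds were tested under these conditions; 0.015% (about 10) showed 50% or more at least once.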
F: 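Whole-parasite assay of Trypanosoma brucei over 72 hours; the read-out is not stated. Compounds at 30 µM. Higher reads as stronger inhibition (inferred: compounds with an IC50 in retests scored well above the rest). Values scatter widely below zero; nearly all retest evidence comes from the higher of the two concentrations used. Of about 64,000 compounds tested this way, about 940 (1.5%) reached 50% or more in at least one test.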

| Compound | A | B | C | D | E | F |
|---|---|---|---|---|---|---|
| `O=C(O)C(F)(F)F.[H][C@@]12COC[C@@H](C(=O)NCc3ccco3)[C@]1([H])CN(c1ncc(F)cn1)C2` | 1.117% | 21.45% | - | - | - | -23.9% |
| `COCC(=O)N1CCC2(CC1)NC(=O)c1ccccc12` | - | - | 6.329% | -1.724% | 3.925% | - |
| `CCc1cc(CNC(=O)N2Cc3ccccc3N(C)CC2C)[nH]n1` (stereo unspecified) | 6.538% | 4.831% | 3.665% | 10.34% | -4.082% | -58.72% |
| `Cc1cc(CN2CCN(C(=O)c3ccc(=O)n(C)c3)CC2)no1` | 8.523% | 0.4788% | 10% | 9.91% | 1.846% | 0.8619% |
| `CCCn1cc(NC(=O)c2cccc(CN3CC=CC3)c2)nn1` | -14.52% | -59.91% | 9.524% | 13.95% | 5.738% | -11.56% |
| `O=C(Cn1nnn(-c2cccs2)c1=O)NCC1CCOC1` (stereo unspecified) | 1.746% | 16.08% | -5.422% | -30.77% | 3.707% | 53.07% |
| `Cc1nn(C)c2nc(-c3ccccn3)nc(NCCCOC(C)C)c12` | -3.21% | 13.69% | 6.404% | 14.47% | -0.7155% | -14.02% |
| `CCS(=O)(=O)N1C[C@H]2CN(Cc3ccc(OC)cc3)C(=O)[C@H]2C1` | - | - | 3% | 10.96% | 1.298% | - |
| `CCN(Cc1ccc2c(c1)OCO2)S(=O)(=O)N(C)C(C)C` | 12.88% | 19.62% | 6.286% | 15.38% | 1.031% | - |
| `CC1CCN(C(=O)NCCc2cc(F)ccc2F)C1` (stereo unspecified) | 2.156% | 13.61% | 0% | 11.96% | -8.543% | -1.27% |
| `O=C1CN(C(=O)C2CN(c3ccccc3)CCO2)CCN1` (stereo unspecified) | -11.1% | 40.28% | 3.788% | 13.04% | -23.12% | -8.902% |
| `NC(=O)c1cccc(OCCC(=O)NC2CCc3c(F)cccc32)c1` (stereo unspecified) | -0.6849% | 23.16% | 7.895% | 10.83% | -2.819% | -13.71% |
| `Cc1cc(CCC2CN(Cc3ccccc3C(=O)O)CCO2)ncn1` (stereo unspecified) | -36% | 9.282% and -6.228% | 4.478% | -9.474% | -4.46% | -29.86% |
| `COc1ncc(NCc2ccsc2)cc1C(N)=O` | 2.065% | -10.13% | -3.867% | 7.254% | -60.13% | -17.05% |
| `Cc1csc(N2CCN(C(=O)C(C(C)C)n3cncn3)CC2)n1` (stereo unspecified) | 2.202% | 16.62% | 7.018% | 23.64% | -7.616% | -1.493% |
| `O=C(c1cc(C2CC2)on1)N1CCCC(n2cncn2)C1` (stereo unspecified) | -2.782% | -1.894% | -3.817% | -2.128% | 17.86% | -11.81% |
| `CCOc1ncccc1NC(=O)NC1CCN(C(C)=O)CC1` | 8.514% | 11.19% | 4.274% | 10.26% | -8.981% | - |
| `Cc1nc[nH]c1CN1CCN(C(=O)CN2CCCC2)[C@H]2CS(=O)(=O)C[C@H]21` | - | - | 0% | 15.58% | -12.39% | - |
| `COc1ccc2c(c1)C(C(=O)N(C)CCCc1nccn1C)CC(=O)N2` (stereo unspecified) | 3.598% | -6.498% | -0.5587% | 13.16% | 10.51% | -10.89% |
| `OCc1ccccc1CNCC1CNc2ccnn2C1` (stereo unspecified) | -38.13% | 22.72% | 6.34% | 10.71% | -15.46% | 11.86% |
| `CNc1nc(C)cc(NC2CCCN(C3Cc4ccccc4C3)C2)n1` (stereo unspecified) | -20.35% | 58.16% | 4.831% | 25.83% | -27.15% | - |
| `Cc1ccccc1-n1nccc1NC(=O)CCOC(C)C` | 5.964% | -1.55% | 2.591% | 5.618% | 0.314% | 0.2714% |
| `CC(C)CC(O)C1CCN(Cc2cnc(-c3cccs3)nc2)CC1` (stereo unspecified) | 8.553% | 11.47% | 16.27% | 21.98% | -8.42% | -23.39% |
| `CCN1CCCC1CN(CCN(C)C)S(=O)(=O)c1ccccc1C#N` (stereo unspecified) | -15.26% | 13.5% | 1.031% | 14.52% | 6.791% | -23.66% |
| `Cc1cc(C(=O)N[C@H](C)c2onc(-c3cccnc3)c2C(=O)O)c(C)o1.Cl` | -6.767% | 9.567% | - | - | - | 0.6478% |
| `CC1CN(C)CCN1CC(=O)NCCOc1ccc(Cl)cc1` (stereo unspecified) | 26.86% | -11.88% | 2.041% | -3.67% | -18.75% | - |
| `CS(=O)(=O)N1CCC2(CC1)COC(COc1ccccn1)C2` (stereo unspecified) | - | - | 0% | 2.564% | -7.813% | - |
| `COc1ccccc1C1=NOC(CC2(C(=O)O)CCOCC2)C1` (stereo unspecified) | -7.958% | 22.13% and 14.47% | 2.985% | 22.11% | 5.34% | -82.35% |
| `O=C(NC1CC1)C1CN(C(=O)c2cnccn2)C1` | 3.346% | 8.192% and 16.51% | 3.093% | 13.91% | 2.356% | 14.59% |
| `Cc1nc(C2(NCC(=O)NC(=O)NCc3cccs3)CCCCC2)no1` | 1.659% | 11.9% | 3.261% | 14.29% | -0.562% | 39.73% |
| `Cc1cc(C(F)(F)F)nn1C(C)C(=O)NN1CCN(C)CC1` (stereo unspecified) | -40.8% | 3.079% | 2.632% | -8.929% | -12.1% | -71.56% |
| `NC(=O)CSc1ccccc1NC(=O)C1CCCCC1` | -26.27% | -21.22% | 7.035% | 18.09% | 26.92% | -25.24% |
| `Cn1cccc1C(=O)N1CC2(CCN(C(=O)c3cccnc3)C2)C1.O=C(O)C(F)(F)F` | -9.435% | 2.095% | - | - | - | -50.87% |
| `c1ccc(COC[C@H]2CC[C@H]3[C@H](CCN3Cc3ccccn3)O2)nc1` | - | - | 5.882% | 10% | 2.766% | - |
| `[H][C@]12CN(Cc3cccc(OC)c3F)C[C@]1([H])N(CCOC)C(=O)CO2` | 15.69% | -2.167% and 7.478% | - | - | - | -20.11% |
| `Cc1cccc(N2CC[C@H]3CO[C@H](CN(C)Cc4ccco4)[C@H]3C2)n1` | - | - | 9.497% | 15.38% | -7.416% | - |
| `Cc1cccc(CSc2ncc(Cl)c(C(=O)O)n2)c1` | 20.02% | 11.89% | 2% | -4.348% | -0.5321% | -63.41% |
| `Cc1nc(C)n(CC2CCCN2CCOc2cccc(F)c2)n1` (stereo unspecified) | 7.535% | 16.01% | 3.429% | 1.695% | -19.2% | - |
| `CNC(=O)c1cccc(NC(=O)c2ccnc(N(C)C)c2)c1C` | -0.9831% | 5.973% | 13.69% | 20.43% | -0.9342% | 0.5526% |
| `O=C(NCCN1CCOC1=O)c1cc(-c2ccccc2)on1` | 5.072% | -6.251% | -0.5181% | -2.151% | 5.843% | -20.27% |
| `CCc1cnc(CN(C)C2CCN(CC3CCC3)C2)o1` (stereo unspecified) | 13.12% | 50.08% | -0.8772% | 21.24% | 4.062% | - |
| `CN(Cc1cnccn1)S(=O)(=O)N1CCCC1c1ccco1` (stereo unspecified) | 5.136% | 24.2% | 5.539% | 12.84% | -29.07% | - |
| `CCC1c2ccsc2CCN1C(=O)NCc1cccnc1OC` (stereo unspecified) | -25.59% | -2.556% | 4.985% | -15.74% | 0.3412% | 3.966% |

Once more, the final 5:

| Compound | A | B | C | D | E | F |
|---|---|---|---|---|---|---|
| `CNC(=O)c1cccc(NC(=O)c2ccnc(N(C)C)c2)c1C` | -0.9831% | 5.973% | 13.69% | 20.43% | -0.9342% | 0.5526% |
| `O=C(NCCN1CCOC1=O)c1cc(-c2ccccc2)on1` | 5.072% | -6.251% | -0.5181% | -2.151% | 5.843% | -20.27% |
| `CCc1cnc(CN(C)C2CCN(CC3CCC3)C2)o1` (stereo unspecified) | 13.12% | 50.08% | -0.8772% | 21.24% | 4.062% | - |
| `CN(Cc1cnccn1)S(=O)(=O)N1CCCC1c1ccco1` (stereo unspecified) | 5.136% | 24.2% | 5.539% | 12.84% | -29.07% | - |
| `CCC1c2ccsc2CCN1C(=O)NCc1cccnc1OC` (stereo unspecified) | -25.59% | -2.556% | 4.985% | -15.74% | 0.3412% | 3.966% |